This series in a line: Quantitation of immobilized levels of tritium-labelled peptides on biomaterials (loading density). The following applies: nonilluminated.

Where no end group is shown, it is not given here.

As to “GRGDSPKKC [RGD reagent control, reference compound]”, the “Peptide Reagent Control Adsorbed” value reads like this: (on PS) 66 ng/cm^2; (on PU) 23 ng/cm^2; (on SR) 65 ng/cm^2.
For “RYVVLPRPVCFEKK [F-9 reagent control, F-9 peptide not incorporated into polymer, laminin-derived, reference compound]”, the “Peptide Reagent Control Adsorbed” value was 57 ng/cm^2 (on PS), 31 ng/cm^2 (on PU) and 75 ng/cm^2 (on SR).
